In article PMC4020751:
No constants are given. Whether binding was seen depends on the method and setting. For some of these results: Binding seen in cells or lysates may run through a third protein. Some binding calls cover weakened binding; strength is not graded here.

Sequences of proteins named here, by UniProt entry; tags and fusion partners are left off. A change or cut given only in a name is not applied to a line headed by its entry. A line that says so, or that is headed by a name, gives the form on record, which may keep a tag or linker.
Htt103Q (huntingtin exon 1 fragment with an expanded polyQ domain, without NLS) (P42858, form named): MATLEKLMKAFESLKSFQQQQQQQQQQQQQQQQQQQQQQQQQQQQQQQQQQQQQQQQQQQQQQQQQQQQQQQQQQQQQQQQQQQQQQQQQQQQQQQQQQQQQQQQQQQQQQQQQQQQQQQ

B1: Pop2(1–159)-mRFP (domain or fragment, UniProt P39008 1-159)
chain: MQSMNVQPRVLAVGGEQFFSQRQASEQHQQQNMGPQVYSPKVNRARMFPQGMPVNTINGSVNQEMNNAYLLKQKNEPLLTQQQQQQQQQQQPFNIGTPVSVASLPPGLNVLQQQQQQQQQQQQQQQGVGLNRPLASQLPKHLTNQSMPPIFLPPPNYLF
B2: Pop2(1–147) (domain or fragment, UniProt P39008 1-147)
chain: MQSMNVQPRVLAVGGEQFFSQRQASEQHQQQNMGPQVYSPKVNRARMFPQGMPVNTINGSVNQEMNNAYLLKQKNEPLLTQQQQQQQQQQQPFNIGTPVSVASLPPGLNVLQQQQQQQQQQQQQQQGVGLNRPLASQLPKHLTNQSM

Columns and labels:
[1] = biological target: Htt103Q (huntingtin exon 1 fragment with an expanded polyQ domain, without NLS) (human) (UniProt P42858); test: co-IP; 400 uL aliquots of the monomeric gel filtration fractions of yeast lysate; Htt103Q precipitated with anti-GFP and Protein G beads; Pop2(1–159)-mRFP detected with anti-RFP
[2] = biological target: Htt103Q (huntingtin exon 1 fragment with an expanded polyQ domain, without NLS) (human) (UniProt P42858); test: co-IP; 400 uL aliquots of the high molecular weight gel filtration fractions of yeast lysate; Htt103Q precipitated with anti-GFP and Protein G beads; Pop2(1–159)-mRFP detected with anti-RFP
[3] = biological target: Htt103Q (huntingtin exon 1 fragment with an expanded polyQ domain, without NLS) (human) (UniProt P42858); test: SEC; yeast lysates (7 mg/mL total protein; 0.1% Triton X-100, 75 mM Tris pH 7.4, 150 mM NaCl, 1 mM EDTA) from cells expressing the proteins alone or together, on a Sephacryl S-200 column at 0.25 mL/min; 1 mL fractions analysed by Western blot

| Binder | binding [1] | binding [2] | binding [3] |
| --- | --- | --- | --- |
| B1 | no binding (condition: monomeric gel filtration fractions) | binds | binds |
| B2 |  |  | no binding |
